Results deposited as PubChem BioAssay AID1259425 (University of Nebraska Medical Center, 2018).

- Screen: 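Seek colon cancer weak points whose silencing resembles KSR1 loss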 (primary screen)
- System: HCT116 human colon cancer cells
- Reagent: siRNA pool against human genes, 50 nM siRNA
- Measurement: 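After 50 nM siRNA pool, branched-DNA assay measures six marker transcripts per well, minus blank, normalised to the geometric mean of two housekeeping transcripts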
- Scale: BNIP3L mRNA: higher = more BNIP3L transcript after knockdown; NDRG1 mRNA: higher = more NDRG1 transcript after knockdown; BNIP3 mRNA: higher = more BNIP3 transcript after knockdown
The deposit covers about 14,000 reagents; this is a part drawn at random. Not all columns of the deposit are shown. Not given: the time to read-out.

gene,"BNIP3L mRNA, set 1","NDRG1 mRNA, set 1","BNIP3 mRNA, set 1"
PTENP1,0.0577,0.127,0.285
PIGR,0.0941,0.108,0.353
DCAF1,0.316,1.09,0.279
C21orf58,0.0719,0.218,0.301
GNB1L,0.0977,0.136,0.238
TPO,0.115,0.323,0.295
SHOX2,0.0553,0.189,0.348
SMC3,0.0909,0.16,0.444
IKZF1,0.0979,0.258,0.289
PDX1,0.0552,0.134,0.273
PHEX,0.0767,0.119,0.332
CH25H,0.14,0.143,0.329

Continued (2 carried over from the part before).
gene,"BNIP3L mRNA, set 1","NDRG1 mRNA, set 1","BNIP3 mRNA, set 1"
PHEX,0.0767,0.119,0.332
CH25H,0.14,0.143,0.329
PSMD3,0.159,1.08,0.355
FANCI,0.0646,0.452,0.341
PSPC1,0.0999,0.226,0.241
GART,0.151,0.35,0.285
PABPC1,0.153,2.06,0.706
CDH17,0.085,0.118,0.205
CCDC9,0.153,0.933,0.648
GAL3ST4,0.122,0.248,0.36
